Measurements from publication PMC11947994.

The chains behind the UniProt entries cited, without tags or fusion partners.
UniProt P17931: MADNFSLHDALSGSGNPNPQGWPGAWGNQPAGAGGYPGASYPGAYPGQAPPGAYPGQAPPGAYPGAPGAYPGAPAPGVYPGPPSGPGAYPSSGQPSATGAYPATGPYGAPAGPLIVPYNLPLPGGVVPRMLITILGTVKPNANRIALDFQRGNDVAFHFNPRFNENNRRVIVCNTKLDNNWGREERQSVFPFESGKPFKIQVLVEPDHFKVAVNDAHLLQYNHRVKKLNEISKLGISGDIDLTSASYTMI

Target: Flag-Lgals3 (UniProt P17931)
Experiment: affinity purification with mass spectrometry; whole-cell lysates immunoprecipitated with Flag antibodies; products analysed by mass spectrometry (IP-MS); cells not named

B1: Slc16A7 (protein, UniProt O60669 1-478)
chain: MPPMPSAPPVHPPPDGGWGWIVVGAAFISIGFSYAFPKAVTVFFKEIQQIFHTTYSEIAWISSIMLAVMYAGGPVSSVLVNKYGSRPVVIAGGLLCCLGMVLASFSSSVVQLYLTMGFITGLGLAFNLQPALTIIGKYFYRKRPMANGLAMAGSPVFLSSLAPFNQYLFNTFGWKGSFLILGSLLLNACVAGSLMRPLGPNQTTSKSKNKTGKTEDDSSPKKIKTKKSTWEKVNKYLDFSLFKHRGFLIYLSGNVIMFLGFFAPIIFLAPYAKDQGIDEYSAAFLLSVMAFVDMFARPSVGLIANSKYIRPRIQYFFSFAIMFNGVCHLLCPLAQDYTSLVLYAVFFGLGFGSVSSVLFETLMDLVGAPRFSSAVGLVTIVECGPVLLGPPLAGKLVDLTGEYKYMYMSCGAIVVAASVWLLIGNAINYRLLAKERKEENARQKTRESEPLSKSKHSEDVNVKVSNAQSVTSERETNI
With B1 the binding was “binds”.

B2: Abhd5 (protein, UniProt Q8WTS1 1-349)
chain: MAAEEEEVDSADTGERSGWLTGWLPTWCPTSISHLKEAEEKMLKCVPCTYKKEPVRISNGNKIWTLKFSHNISNKTPLVLLHGFGGGLGLWALNFGDLCTNRPVYAFDLLGFGRSSRPRFDSDAEEVENQFVESIEEWRCALGLDKMILLGHNLGGFLAAAYSLKYPSRVNHLILVEPWGFPERPDLADQDRPIPVWIRALGAALTPFNPLAGLRIAGPFGLSLVQRLRPDFKRKYSSMFEDDTVTEYIYHCNVQTPSGETAFKNMTIPYGWAKRPMLQRIGKMHPDIPVSVIFGARSCIDGNSGTSIQSLRPHSYVKTIAILGAGHYVYADQPEEFNQKVKEICDTVD
B2 was tested, and the binding was “binds”.

These are yes or no findings as the source states them, for the method shown. In cells and extracts the contact can be indirect. A yes stands for co-enrichment or nearness to the bait. Other partners may have been found.
